These are yes or no findings as the source states them, for the method shown. Binding seen in cells or lysates may run through a third protein. Some entries that bind do so weakly or less than the wild type. Tags and fused reporters may be left off the sequences shown. Each block holds one molecule with its values, some of them ahead of it.
Key:
[1] = target: T1, DDX50-HA (pCW57-Ddx50-HA, MEF cell line) (UniProt Q99MJ9); experiment: co-IP; MEF DDX50-HA cell lines (doxycycline-induced) transfected with TRIF-cTAP or GFP-Flag, 1 h after transfection of 5 µg/mL PolyIC; lysis in 50 mM Tris pH 7.6, 150 mM NaCl, 1% NP40, 1 mM EDTA, 10% glycerol; M2 Flag-beads or HA-beads (which for this panel is not stated); immunoblot
T1 sequence: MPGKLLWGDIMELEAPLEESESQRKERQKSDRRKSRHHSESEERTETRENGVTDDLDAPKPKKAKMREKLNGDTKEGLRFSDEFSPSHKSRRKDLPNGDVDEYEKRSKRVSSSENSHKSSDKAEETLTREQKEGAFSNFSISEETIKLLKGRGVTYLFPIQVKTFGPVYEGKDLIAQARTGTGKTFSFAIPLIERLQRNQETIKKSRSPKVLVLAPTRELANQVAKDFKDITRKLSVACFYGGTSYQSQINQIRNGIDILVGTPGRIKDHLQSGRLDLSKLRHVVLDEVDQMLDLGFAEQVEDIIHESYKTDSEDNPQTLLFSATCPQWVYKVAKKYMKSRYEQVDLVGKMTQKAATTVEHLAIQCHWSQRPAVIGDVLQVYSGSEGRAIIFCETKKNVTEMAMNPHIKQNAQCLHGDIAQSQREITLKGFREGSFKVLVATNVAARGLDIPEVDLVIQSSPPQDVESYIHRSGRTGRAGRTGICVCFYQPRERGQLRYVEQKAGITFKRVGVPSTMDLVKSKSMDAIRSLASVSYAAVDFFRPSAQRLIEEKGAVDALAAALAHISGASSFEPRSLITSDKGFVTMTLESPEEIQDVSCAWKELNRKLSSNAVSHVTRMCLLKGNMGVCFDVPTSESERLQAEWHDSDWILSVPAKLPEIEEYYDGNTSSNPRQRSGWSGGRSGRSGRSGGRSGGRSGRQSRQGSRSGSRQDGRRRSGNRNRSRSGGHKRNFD

The chains behind the UniProt entries cited, without tags or fusion partners.
UniProt Q8IUC6: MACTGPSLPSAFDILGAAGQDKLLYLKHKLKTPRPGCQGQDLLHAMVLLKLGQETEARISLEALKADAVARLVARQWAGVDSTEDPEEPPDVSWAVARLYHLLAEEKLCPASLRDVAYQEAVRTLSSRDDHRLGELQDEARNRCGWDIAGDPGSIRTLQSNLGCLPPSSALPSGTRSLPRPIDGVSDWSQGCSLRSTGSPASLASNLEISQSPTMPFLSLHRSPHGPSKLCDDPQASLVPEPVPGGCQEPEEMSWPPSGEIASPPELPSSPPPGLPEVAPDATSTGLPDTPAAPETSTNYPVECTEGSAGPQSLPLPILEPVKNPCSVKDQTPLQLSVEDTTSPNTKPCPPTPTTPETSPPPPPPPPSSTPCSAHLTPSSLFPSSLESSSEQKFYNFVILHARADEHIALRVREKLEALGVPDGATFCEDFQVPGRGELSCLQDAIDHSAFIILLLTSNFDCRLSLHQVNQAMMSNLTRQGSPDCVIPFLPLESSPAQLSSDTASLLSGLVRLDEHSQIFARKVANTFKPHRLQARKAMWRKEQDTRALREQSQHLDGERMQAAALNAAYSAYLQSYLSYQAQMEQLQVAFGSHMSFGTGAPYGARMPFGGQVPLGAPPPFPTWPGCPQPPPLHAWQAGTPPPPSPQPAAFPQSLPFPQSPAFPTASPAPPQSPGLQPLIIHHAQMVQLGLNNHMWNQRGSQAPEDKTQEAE

[2] = target: TRIF-cTAP (pCDNA3-TRIF-cTAP, in HeLa) (UniProt Q8IUC6); experiment: co-IP; reciprocal immunoprecipitation; HeLa cells transfected with hDDX50-HA along with TRIF-cTAP or GFP-Flag, 1 h after transfection of 5 µg/mL PolyIC; lysis in 50 mM Tris pH 7.6, 150 mM NaCl, 1% NP40, 1 mM EDTA, 10% glycerol; M2 Flag-beads or HA-beads (which for this panel is not stated); immunoblot

binding [1]: binds
Molecule: TRIF-cTAP (pCDNA3-TRIF-cTAP, in MEFs) (from UniProt Q8IUC6 1-712)

binding [2]: binds
B1: hDDX50-HA (pLDT-hDDX50-HA, in HeLa) (protein, UniProt Q9BQ39 1-737)
chain: MPGKLLWGDIMELEAPLEESESQKKERQKSDRRKSRHHYDSDEKSETRENGVTDDLDAPKAKKSKMKEKLNGDTEEGFNRLSDEFSKSHKSRRKDLPNGDIDEYEKKSKRVSSLDTSTHKSSDNKLEETLTREQKEGAFSNFPISEETIKLLKGRGVTYLFPIQVKTFGPVYEGKDLIAQARTGTGKTFSFAIPLIERLQRNQETIKKSRSPKVLVLAPTRELANQVAKDFKDITRKLSVACFYGGTSYQSQINHIRNGIDILVGTPGRIKDHLQSGRLDLSKLRHVVLDEVDQMLDLGFAEQVEDIIHESYKTDSEDNPQTLLFSATCPQWVYKVAKKYMKSRYEQVDLVGKMTQKAATTVEHLAIQCHWSQRPAVIGDVLQVYSGSEGRAIIFCETKKNVTEMAMNPHIKQNAQCLHGDIAQSQREITLKGFREGSFKVLVATNVAARGLDIPEVDLVIQSSPPQDVESYIHRSGRTGRAGRTGICICFYQPRERGQLRYVEQKAGITFKRVGVPSTMDLVKSKSMDAIRSLASVSYAAVDFFRPSAQRLIEEKGAVDALAAALAHISGASSFEPRSLITSDKGFVTMTLESLEEIQDVSCAWKELNRKLSSNAVSQITRMCLLKGNMGVCFDVPTTESERLQAEWHDSDWILSVPAKLPEIEEYYDGNTSSNSRQRSGWSSGRSGRSGRSGGRSGGRSGRQSRQGSRSGSRQDGRRRSGNRNRSRSGGHKRSFD

— article PMC8875258
